Results published in US6403656B1, “Use of ppar-γ activators in dermatology” (Galderma Research & Development S.N.C, priority 1997, dated 2002).
Some results were stated once for a whole list of compounds, not compound by compound. At least one structure is not confirmed: it was looked up by name or label, or the drawing left a doubt.

System: keratinocytes
Experiment: Determination of the keratinocyte proliferation (BrdU incorporation)
Conditions: concentration lower than or equal to 100 nM; BrdU after three days of culture

SMILES: CCCCC/C=C/C=C1/C(=O)C=CC1C/C=C\CCCC(=O)O (centres unmarked) [Compound E, 15-deoxy-Δ^12,14-prostaglandin J2(15-d PGJ2)]
- % of inhibition of keratinocyte proliferation: less than or equal to 20%

SMILES: CN(CCOc1ccc(CC2SC(=O)NC2=O)cc1)c1ccccn1 (centres unmarked) [Compound A, 5-{4-[2-(methylpyrid-2-ylamino)-ethoxy]benzyl}thiazolidine-2,4-dione]
- % of inhibition of keratinocyte proliferation: less than or equal to 20%
